PubChem BioAssay AID1224830, NIAID – 2016

- Screen: 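Host factors that control LPS-induced TNF expression in human macrophages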 (primary screen)
- Cells: human THP-1 monocytic leukaemia cells, TNF dual-luciferase reporter clone, PMA-differentiated to macrophage-like cells
- Reagents: siRNA pool against human genes, 50 nM
- Time to read-out: LPS for 4 h, given about 3 days after siRNA transfection
- Conditions: bacterial LPS (TLR4 ligand), 10 ng/ml
- Measured: 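TNF firefly reporter luminescence divided by renilla, normalised to the plate median, then turned into a robust z-score for each replicate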
- Direction: TNF reporter robust z-score: higher = stronger TNF reporter response to LPS
- Active means: 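a well is active when its z-score exceeds 2.8 or falls below -1.5; control wells carry no call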
This is one part, drawn at random, of about 18,000 reagents. Of all reagents, about 2,900 (16%) are marked active. 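Calls are made per well; low scores hint the gene aids the LPS response, high scores that it dampens it.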 Entries without a mark were called inactive. Repeated entries: four replicate wells of each siRNA pool.

Against PMS2P3, the values are TNF reporter robust z-score 0.47.
PMS2P3 gave TNF reporter robust z-score 1.
Silencing of PMS2P3 came out at: TNF reporter robust z-score -0.28.
With knock-down of PMS2P3, the screen gave TNF reporter robust z-score 0.77.
ARL4A scored TNF reporter robust z-score -1.27.
With knock-down of ARL4A, the record shows TNF reporter robust z-score 0.74.
Silencing of ARL4A gave: TNF reporter robust z-score 0.12.
For ARL4A, the values are TNF reporter robust z-score -0.24.

Copied from above for reference:
ARL4A → TNF reporter robust z-score: -1.27
ARL4A → TNF reporter robust z-score: 0.74

Next entries follow:
For RTL8C, the entry reads TNF reporter robust z-score -0.85.
Silencing of RTL8C resulted in: TNF reporter robust z-score 0.62.
Depletion of RTL8C resulted in: TNF reporter robust z-score -0.6.
After knock-down of CABCOCO1, the record shows TNF reporter robust z-score 0.9.
Knock-down of CABCOCO1 resulted in: TNF reporter robust z-score 0.72.
Against CABCOCO1, the entry reads TNF reporter robust z-score 0.58.
After knock-down of SFI1, the record shows TNF reporter robust z-score 0.58.
For SFI1 the deposit lists TNF reporter robust z-score -0.28.
Against SFI1, the values are TNF reporter robust z-score 0.62.
Against SFI1, the values are TNF reporter robust z-score 0.72.
For ZNF329, the entry reads TNF reporter robust z-score -0.41.
Silencing of ZNF329 came out at: TNF reporter robust z-score 0.39.
Depletion of ZNF329 resulted in: TNF reporter robust z-score -0.2.
With knock-down of ZNF329, the screen gave TNF reporter robust z-score 0.09.
